Data as given in PubChem BioAssay AID1224830 (NIAID, 2016)
The whole screen tested about 18,000 reagents; below is an unselected part. In the full data, about 2,900 (16%) are marked active. 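Calls are made per well; low scores hint the gene aids the LPS response, high scores that it dampens it.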 Repeated entries: four replicate wells of each siRNA pool.

- Assay: 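Genes whose knock-down alters the TNF-alpha reporter response to LPS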 (primary screen)
- System: human THP-1 monocytic leukaemia cells, TNF dual-luciferase reporter clone, PMA-differentiated to macrophage-like cells
- Reagent: siRNA pool against human genes, 50 nM
- Duration: LPS for 4 h, given about 3 days after siRNA transfection
- Treatment: bacterial LPS (TLR4 ligand), 10 ng/ml
- Detection: 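TNF firefly reporter luminescence divided by renilla, normalised to the plate median, then turned into a robust z-score for each replicate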
- Direction: TNF reporter robust z-score: higher = stronger TNF reporter response to LPS
- Rule for the call: 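a well is active when its z-score exceeds 2.8 or falls below -1.5; control wells carry no call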

gene,TNF reporter robust z-score,outcome
AQP2 (GeneID 359),0.06,inactive
AQP2 (GeneID 359),-0.26,inactive
AQP2 (GeneID 359),-0.51,inactive
AQP2 (GeneID 359),-0.39,inactive
GRM5 (GeneID 2915),-0.47,inactive
GRM5 (GeneID 2915),-0.58,inactive
GRM5 (GeneID 2915),-0.83,inactive
GRM5 (GeneID 2915),-0.39,inactive
C17orf58 (GeneID 284018),5.05,active
C17orf58 (GeneID 284018),2.21,inactive
C17orf58 (GeneID 284018),0.18,inactive
C17orf58 (GeneID 284018),1.41,inactive
CERS5 (GeneID 91012),0.75,inactive
CERS5 (GeneID 91012),-0.05,inactive
CERS5 (GeneID 91012),-0.46,inactive
CERS5 (GeneID 91012),0.2,inactive
RPL3 (GeneID 6122),-0.77,inactive
RPL3 (GeneID 6122),-0.55,inactive
RPL3 (GeneID 6122),-1.28,inactive
RPL3 (GeneID 6122),-0.67,inactive
RITA1 (GeneID 84934),0.13,inactive
RITA1 (GeneID 84934),1.6,inactive
RITA1 (GeneID 84934),1.39,inactive
RITA1 (GeneID 84934),0.82,inactive
ANGPTL3 (GeneID 27329),0.91,inactive
ANGPTL3 (GeneID 27329),1.34,inactive
ANGPTL3 (GeneID 27329),1.08,inactive
ANGPTL3 (GeneID 27329),0.37,inactive
MYBPC2 (GeneID 4606),-0.83,inactive
MYBPC2 (GeneID 4606),-0.54,inactive
MYBPC2 (GeneID 4606),0.44,inactive
MYBPC2 (GeneID 4606),0.86,inactive
GCNA (GeneID 93953),-0.26,inactive
GCNA (GeneID 93953),-0.95,inactive
GCNA (GeneID 93953),-0.93,inactive
GCNA (GeneID 93953),0.58,inactive
C1orf52 (GeneID 148423),-1.42,inactive
C1orf52 (GeneID 148423),-0.48,inactive
C1orf52 (GeneID 148423),0.32,inactive
C1orf52 (GeneID 148423),0.38,inactive

A portion taken from the entries so far, for reference:
gene,TNF reporter robust z-score,outcome
RITA1 (GeneID 84934),0.82,inactive
ANGPTL3 (GeneID 27329),0.91,inactive
ANGPTL3 (GeneID 27329),1.34,inactive
ANGPTL3 (GeneID 27329),1.08,inactive
ANGPTL3 (GeneID 27329),0.37,inactive
MYBPC2 (GeneID 4606),-0.83,inactive
MYBPC2 (GeneID 4606),-0.54,inactive

Continued:
gene,TNF reporter robust z-score,outcome
CDK19 (GeneID 23097),-1.08,inactive
CDK19 (GeneID 23097),-0.15,inactive
CDK19 (GeneID 23097),-0.25,inactive
CDK19 (GeneID 23097),0.35,inactive
GSS (GeneID 2937),-0.98,inactive
GSS (GeneID 2937),-0.04,inactive
GSS (GeneID 2937),0.12,inactive
GSS (GeneID 2937),0.6,inactive
AFF2 (GeneID 2334),0.63,inactive
AFF2 (GeneID 2334),0.64,inactive
AFF2 (GeneID 2334),-0.14,inactive
AFF2 (GeneID 2334),-0.22,inactive
ADGRG1 (GeneID 9289),-0.07,inactive
ADGRG1 (GeneID 9289),-0.36,inactive
ADGRG1 (GeneID 9289),0.85,inactive
ADGRG1 (GeneID 9289),0.73,inactive
SLC35H1 (GeneID 51006),0.66,inactive
SLC35H1 (GeneID 51006),1.16,inactive
SLC35H1 (GeneID 51006),-0.04,inactive
SLC35H1 (GeneID 51006),0.02,inactive
FEM1A (GeneID 55527),-0.91,inactive
FEM1A (GeneID 55527),-0.77,inactive
FEM1A (GeneID 55527),-0.76,inactive
FEM1A (GeneID 55527),-0.44,inactive
PCDHB7 (GeneID 56129),0.46,inactive
PCDHB7 (GeneID 56129),0.74,inactive
PCDHB7 (GeneID 56129),0.43,inactive
PCDHB7 (GeneID 56129),0.15,inactive
PTH2R (GeneID 5746),-0.71,inactive
PTH2R (GeneID 5746),0.06,inactive
PTH2R (GeneID 5746),-0.29,inactive
PTH2R (GeneID 5746),0.35,inactive
DEFB4A (GeneID 1673),-0.04,inactive
DEFB4A (GeneID 1673),1.43,inactive
DEFB4A (GeneID 1673),0.25,inactive
DEFB4A (GeneID 1673),-0.07,inactive
RHBDL1 (GeneID 9028),-1.38,inactive
RHBDL1 (GeneID 9028),3.71,active
RHBDL1 (GeneID 9028),-0.26,inactive
RHBDL1 (GeneID 9028),-0.03,inactive
NXF5 (GeneID 55998),-0.16,inactive
NXF5 (GeneID 55998),1.24,inactive
NXF5 (GeneID 55998),-0.52,inactive
NICN1 (GeneID 84276),-1.29,inactive
NICN1 (GeneID 84276),-1,inactive
NICN1 (GeneID 84276),-1.02,inactive
NICN1 (GeneID 84276),-0.89,inactive
ZNF827 (GeneID 152485),0.65,inactive
ZNF827 (GeneID 152485),1.66,inactive
ZNF827 (GeneID 152485),1.61,inactive
ZNF827 (GeneID 152485),1.22,inactive
MX1 (GeneID 4599),0.7,inactive
MX1 (GeneID 4599),-0.87,inactive
MX1 (GeneID 4599),1.9,inactive
MX1 (GeneID 4599),1.65,inactive
ORAI2 (GeneID 80228),0.67,inactive
ORAI2 (GeneID 80228),0.65,inactive
ORAI2 (GeneID 80228),0.38,inactive
ORAI2 (GeneID 80228),0.98,inactive
MAP2K7 (GeneID 5609),0.31,inactive
MAP2K7 (GeneID 5609),1.33,inactive
MAP2K7 (GeneID 5609),1.03,inactive
MAP2K7 (GeneID 5609),-0.11,inactive
VAMP5 (GeneID 10791),0.8,inactive
VAMP5 (GeneID 10791),1.04,inactive
VAMP5 (GeneID 10791),1.28,inactive
VAMP5 (GeneID 10791),1.36,inactive
FUT3 (GeneID 2525),-1.33,inactive
FUT3 (GeneID 2525),-0.42,inactive
FUT3 (GeneID 2525),-0.74,inactive
FUT3 (GeneID 2525),-1.09,inactive
